Z-score data for 68 sequences are collected here from PubChem BioAssay AID1508600 (Functional Genomics Laboratory (NCATS/FGL), 2020).

Screen size: about 53,000 sequences; about 3,700 (7%) were called active.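 Rule for the calls: active = gene knockdowns whose robust z-score for IL-1 alpha signal is at least 2 or at most -2, so actives lie on both sides; inactive = the rest.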 The list shows a part of the results.

The nature of the assay: Components of the Cytosolic LPS Sensing Pathway: Gene Identification via Genome-wide siRNA Screen.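 Note: robust z of the log signal after scaling to non-targeting control siRNA wells of the plate.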 The conditions noted are these: RAW264.7 macrophages, IL-1a HTRF, actives lie on both sides, screened at 100 nM (by protocol), cells primed 5 h with Pam3CSK4 first. In a few lines:
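IL-1a HTRF of supernatants after 24 hour LipidA transfection of Pam3CSK4-primed (5 hours) RAW264.7 cells, 48h post-siRNA transfection (100 nM). Scores: percent of plate negative-control median, then log-based robust z-score.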
Regarding GCCGAUGUAUGGAGUUUUCTT against Mei1, the z-score was inactive: 1.79. The result for CGGAGAGAUGGUGUGAACATT against Ik reads inactive: -0.774. Then GGGCUCAUUUUCACUGCUUTT against Atraid, with inactive: 0.546. With GGACGACAGCAAAGGGAAGTT against Tnnc1, the z-score was inactive: -0.227. Then GGAAUGUACUAGACCCGAGTT against Gstm2, with inactive: -0.204; and CGGCAAAAUUAGCUAUUCATT against Exosc4, with inactive: 0.489. For GGAGCCGAAAAAGAUGACCTT against Slu7, the z-score is inactive: -0.423. The result for GCAAUGUGUGGUAAGUAAATT against Zfp738 reads inactive: -0.757. Then CCAGCUUCAAGGAACAUGGTT against Fabp12, with inactive: -1.93; and GCUUGAUCAUGCAAUCUAUTT against Naa25, with inactive: 0.673. As to GGAAGAAGUGAUAAAGAGATT against Nts, the z-score was inactive: -0.314. Take GGUGUGGUAUGCUUUCUCCTT against Ddx11: the z-score is inactive: -0.266. As for GCACUGAAGCCUAGCUGUUTT against BC051142, the z-score is inactive: 1.41. Then GGGUAAAAAGUUUGACAAGTT against Fam76b, with inactive: 0.436; and CCCAAGAAUUGGAUUCCAGTT against Lta, with inactive: -0.528.

As to GGUUCUGGAAGUGAAGGUGTT against Prg2, the z-score was inactive: -0.00973. Consider CCUGAUUCUUGUCAAAAACTT against Cdh12, for which the z-score is inactive: -0.22.

Consider GGACUUCUACUCAGAAUUUTT against Nisch, for which the z-score was inactive: 0.811.

Take CCAUGCGGUUGUUCAAGUATT against Taf7l: the z-score is inactive: 0.54. The result for GGUGAAGCCAGUUCACGAATT against Gm5082 reads inactive: -0.182; that for “GGAAUAUCCUGACUUCUGATT against 4931431C16Rik”, inactive: -0.949; that for GGAGUACAUUGUGAAUGUUTT against Tnr, inactive: -1.44.

Regarding GGAUACAAGAAACCUUAAGTT against Os9, the z-score is inactive: 1.09. The result for CCUACGACCUGAAGAUAGCTT against Dscc1 reads inactive: -0.124; that for CGACCAAAAUCAAAACAGCTT against Defb12, inactive: -0.093; that for “GGAACGAAGUCUGAAACACTT against A730018C14Rik”, inactive: -1.89. The result for GCAUUAGGAAUUCAAUUAGTT against Adamts1 reads inactive: 0.813; that for GCCAUUAUGCCGACGUGGATT against Slc38a2, inactive: -0.636; that for GGGUCGGGUUUCCUAAAGATT against Heatr5b, inactive: 0.643. The result for GGCAUUCUUAUAAAGAAACTT against Ube2q1 reads inactive: 0.174. As to CGGGUGUUUGAAUGAUUUCTT against Mrps27, the z-score was inactive: 0.856. Then CCCGAAGUAGUCUUUAUCGTT against Pafah1b3, with inactive: -0.629; and GGAAGUGGCGAGGUUCUAUTT against Folr1, with inactive: 0.782; and GCCCUUCGCUUAGUCAGAATT against Rictor, with inactive: 0.186.

For the sequence GGGCAUCGUUUUCAUCUCATT against Wdr11, the z-score was inactive: 1.77. Then GGAGUUUCCUAGUAAGGCCTT against Fam71b, with inactive: 0.847. On to GCUAAAGAUUGACAAAGCUTT against Uqcrc2, for which the z-score is inactive: -1.36. Then GGUGCCCACUAACUUAGAATT against Tbx21, with active: 2.3; and GGACAAAAUACGUGAUAUUTT against Bco1, with inactive: 0.205. Consider GGUGAGAAGCCUUAUCAUUTT against Klf2, for which the z-score was inactive: -0.882.

As for GCAUAUUGCCUACUUCUUCTT against Olfr982, the z-score is inactive: -1.42.

On to GGUGAUACACUGUAAUCUGTT against Msra, for which the z-score was inactive: 0.843. Then GAGUUCAAGAAUGCUGUUUTT against Usp43, with inactive: -0.463; and GCAGCUAAACACCGAUAUGTT against Eid3, with inactive: 0.951. Then GGGCAAAUAGUCAAUGACCTT against Ces1e, with inactive: 0.661; and GCGAUGCUGCGUUCUGUUUTT against H1f10, with inactive: -0.0369; and GGAUCAUGUUAAACAAAGATT against Ccne1, with inactive: -0.366.

For GGUCAAAUAUAUGCUUGGGTT against Rcbtb2, the z-score was inactive: -1.18. GGCCCUAGAAAGGACACAGTT against Gm5094: the z-score was inactive: -1.4. The result for “CGAUGGACGAGAAAUAUUUTT against 1700030K09Rik” reads inactive: -1.52; that for GGAUCACUGACUUUGAAUUTT against Mob2, inactive: -0.654.

For GCAGGAUCUGCCUAAGUCGTT against Arl4c, the z-score was inactive: 0.649. Then GCCUUUCACUAUUGACAACTT against Aurkb, with inactive: -1.29; and CCUUAACCUCCACUUUAUATT against Sdc2, with inactive: 0.391; and CCUUGACUCGUAAAUACUUTT against Ist1, with inactive: 0.962. Then GGAUGUUGAAAUCAAUGGUTT against Cyp3a16, with inactive: 0.198; and GGCAAAAUCUCAUCAGUCCTT against Iqcc, with inactive: -0.131; and GGAAGAGAUCAUCCAGCUGTT against Mafg, with inactive: 1.73. Regarding GGAGCCCUUGCUCUUUAACTT against Izumo1r, the z-score was active: -2.23. The result for GGGUAGAAUCCAAGAAGCGTT against Hoxb3 reads active: -2.08; that for GCUCAUGUUGCACUGGAAATT against Ulbp1, inactive: 1.22; that for GGCUAUACCCUGAAAUAUUTT against Slitrk4, inactive: -0.00892. On to GGACCAAAAACCACUGUUUTT against Olfr355, for which the z-score was inactive: -0.7. Turning to GACAAAAUGGGUUUUACCUTT against Olfr668, the z-score is inactive: -0.736. Then GCACGCAGAAUUCUUCCGUTT against Large2, with inactive: 0.706; and GGACCUUUUAUCUGAAAUGTT against Papln, with inactive: 1.54; and GGGACAUUAAACUAUUUCATT against Chchd3, with inactive: -0.515. In the case of GGCUGAACUGAUCCUGUACTT against Kcnh3, the z-score was active: -2.22.
